PubChem BioAssay AID686943, Drosophila RNAi Screening Center, 2013
The screen tested about 23,000 reagents; this is a random part of those with a known target gene and a result. 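Extra replicates exist only for a retested subset of genes; insulin dose and duration not given; both raised and lowered dpERK matter.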 The record does not give: the amount of reagent, the time to read-out.

Assay: 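Fly genes whose loss alters ERK activation after insulin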 (primary screen)
Cell system: Drosophila S2R+ haemocyte-like cells expressing YFP-tagged ERK (Rolled)
Reagent: long dsRNA against Drosophila genes
Challenge: insulin stimulation versus unstimulated cells; dose and duration not given
Measurement: 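Per-plate z-scores of phospho-ERK immunostaining normalised to YFP-tagged ERK, measured with and without insulin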
Direction: replicate 1, z-score of dpERK with insulin and replicate 2, z-score of dpERK with insulin: higher = more active ERK per ERK-YFP after insulin; replicate 1, z-score of dpERK under basal conditions: higher = more basal active ERK per ERK-YFP; replicate 1, z-score of ERK-YFP with insulin: higher = more YFP-tagged ERK signal

| Gene | DRSC id | replicate 1, z-score of dpERK with insulin | replicate 2, z-score of dpERK with insulin | replicate 1, z-score of dpERK under basal conditions | replicate 1, z-score of ERK-YFP with insulin |
| --- | --- | --- | --- | --- | --- |
| CG42700 (GeneID 36330) | DRSC06292 | -3.96 | -3.57 | -3.1 | -5.15 |
| CG42700 (GeneID 36330) | DRSC06293 | 0.43 | 1.1 | 0.55 | -0.02 |
| Nprl2 (GeneID 32677) | DRSC20153 | 0.78 | 1.58 | -0.55 | 0.38 |
| firl (GeneID 34627) | DRSC02428 | 0.57 | 0.58 | -0.91 | -0.22 |
| CG31125 (GeneID 318599) | DRSC13684 | 4.75 | 1.38 | -0.13 | -1.55 |
| CG8237 (GeneID 35891) | DRSC07119 | -0.85 | -0.64 | -1.3 | 0.65 |
| Su(Tpl) (GeneID 40171) | DRSC10954 | 1.19 | 0.9 | 0.52 | -1.96 |
| CR9337 (GeneID 3885658) | DRSC03212 | 0.15 | -0.02 | -0.6 | -0.63 |
| CG12384 (GeneID 36224) | DRSC06145 | 0.86 | -0.31 | 0.59 | -0.25 |
| PIG-H (GeneID 40944) | DRSC14856 | -0.04 | 0.06 | 0.35 | 0.27 |
| CG18537 (GeneID 37094) | DRSC06764 | 0.11 | 0.33 | 0.09 | 1.01 |
| CG11975 (GeneID 41074) | DRSC14452 | 0.14 | -0.17 | -0.24 | -0.15 |
| CG9876 (GeneID 37668) | DRSC04586 | 0.37 | 0.06 | 1.29 | 0.09 |
| CG15370 (GeneID 31864) | DRSC18042 | -3.71 | -3.42 | -2.32 | 0.27 |
| alpha-Est1 (GeneID 40909) | DRSC12612 | 0.68 | -0.32 | -1.03 | -0.12 |
| CG9123 (GeneID 32462) | DRSC20156 | 1.29 | 1.6 | -0.9 | -0.29 |
| CG32152 (GeneID 317885) | DRSC22906 | 0.56 | -0.34 | -1.03 | 0.5 |
| SmydA-9 (GeneID 31859) | DRSC17814 | 0.18 | 0.58 | 1.13 | 0.32 |
| caup (GeneID 39440) | DRSC11334 | 0.08 | -3.12 | -2.01 | -0.07 |
| N (GeneID 31293) | DRSC18685 | -0.37 | -0.2 | 0.61 | 0.4 |
| CG3502 (GeneID 37695) | DRSC04381 | -0.75 | 0.55 | -0.53 | 1.36 |
| GIIIspla2 (GeneID 31747) | DRSC18094 | -0.25 | -1.09 | 0.38 | -0.15 |
| wun (GeneID 35966) | DRSC07719 | -0.1 | 0.42 | -0.64 | -0.03 |
